Data from the supplement of paper PMC12823440, “Inhibitors supercharge kinase turnover through native proteolytic circuits” (Nature, 2025).
Where a name gives a salt, the structure may show the parent alone. Some of the results follow. Hit calls seldom repeat between salt and free forms of one compound.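 In K562 cells expressing nanoluciferase-fused kinases, luminescence was recorded at 4 h intervals between 2 and 18 h, normalized as percent of control with DMSO at 100% and a positive control at 0%. A significant (2 sigma) signal drop marks a time point as decreased. The authors' rule for a hit is not shown and takes in more than the number of time points.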

Amino acid sequences for entries named in this document (tags omitted). A change or cut given only in a name is not applied to a line headed by its entry.
UniProt P29317, whole entry: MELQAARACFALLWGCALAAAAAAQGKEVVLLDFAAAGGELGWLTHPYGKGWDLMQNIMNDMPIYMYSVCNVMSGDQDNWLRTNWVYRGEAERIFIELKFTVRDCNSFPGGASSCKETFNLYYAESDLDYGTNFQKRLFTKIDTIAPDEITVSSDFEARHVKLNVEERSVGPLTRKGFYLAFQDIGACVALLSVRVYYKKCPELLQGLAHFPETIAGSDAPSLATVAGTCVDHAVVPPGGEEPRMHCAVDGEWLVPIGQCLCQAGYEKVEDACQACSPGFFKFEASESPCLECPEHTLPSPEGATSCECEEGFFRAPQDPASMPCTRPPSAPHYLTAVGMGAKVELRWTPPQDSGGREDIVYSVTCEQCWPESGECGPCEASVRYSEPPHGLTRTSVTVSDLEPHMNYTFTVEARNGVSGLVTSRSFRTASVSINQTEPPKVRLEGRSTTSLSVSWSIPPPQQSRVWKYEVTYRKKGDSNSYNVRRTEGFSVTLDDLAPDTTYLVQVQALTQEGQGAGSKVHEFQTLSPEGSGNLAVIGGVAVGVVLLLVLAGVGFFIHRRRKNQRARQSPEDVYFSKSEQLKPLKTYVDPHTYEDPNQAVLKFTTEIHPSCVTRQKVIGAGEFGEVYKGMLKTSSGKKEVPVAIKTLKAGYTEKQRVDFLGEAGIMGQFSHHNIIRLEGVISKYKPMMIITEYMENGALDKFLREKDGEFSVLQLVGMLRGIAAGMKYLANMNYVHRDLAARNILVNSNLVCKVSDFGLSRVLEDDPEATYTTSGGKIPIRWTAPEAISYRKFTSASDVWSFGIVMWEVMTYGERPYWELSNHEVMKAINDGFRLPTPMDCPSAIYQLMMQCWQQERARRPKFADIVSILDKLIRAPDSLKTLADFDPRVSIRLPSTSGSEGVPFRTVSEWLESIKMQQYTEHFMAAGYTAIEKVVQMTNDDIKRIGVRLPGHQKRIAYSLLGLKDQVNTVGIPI
UniProt Q15303, whole entry R711C: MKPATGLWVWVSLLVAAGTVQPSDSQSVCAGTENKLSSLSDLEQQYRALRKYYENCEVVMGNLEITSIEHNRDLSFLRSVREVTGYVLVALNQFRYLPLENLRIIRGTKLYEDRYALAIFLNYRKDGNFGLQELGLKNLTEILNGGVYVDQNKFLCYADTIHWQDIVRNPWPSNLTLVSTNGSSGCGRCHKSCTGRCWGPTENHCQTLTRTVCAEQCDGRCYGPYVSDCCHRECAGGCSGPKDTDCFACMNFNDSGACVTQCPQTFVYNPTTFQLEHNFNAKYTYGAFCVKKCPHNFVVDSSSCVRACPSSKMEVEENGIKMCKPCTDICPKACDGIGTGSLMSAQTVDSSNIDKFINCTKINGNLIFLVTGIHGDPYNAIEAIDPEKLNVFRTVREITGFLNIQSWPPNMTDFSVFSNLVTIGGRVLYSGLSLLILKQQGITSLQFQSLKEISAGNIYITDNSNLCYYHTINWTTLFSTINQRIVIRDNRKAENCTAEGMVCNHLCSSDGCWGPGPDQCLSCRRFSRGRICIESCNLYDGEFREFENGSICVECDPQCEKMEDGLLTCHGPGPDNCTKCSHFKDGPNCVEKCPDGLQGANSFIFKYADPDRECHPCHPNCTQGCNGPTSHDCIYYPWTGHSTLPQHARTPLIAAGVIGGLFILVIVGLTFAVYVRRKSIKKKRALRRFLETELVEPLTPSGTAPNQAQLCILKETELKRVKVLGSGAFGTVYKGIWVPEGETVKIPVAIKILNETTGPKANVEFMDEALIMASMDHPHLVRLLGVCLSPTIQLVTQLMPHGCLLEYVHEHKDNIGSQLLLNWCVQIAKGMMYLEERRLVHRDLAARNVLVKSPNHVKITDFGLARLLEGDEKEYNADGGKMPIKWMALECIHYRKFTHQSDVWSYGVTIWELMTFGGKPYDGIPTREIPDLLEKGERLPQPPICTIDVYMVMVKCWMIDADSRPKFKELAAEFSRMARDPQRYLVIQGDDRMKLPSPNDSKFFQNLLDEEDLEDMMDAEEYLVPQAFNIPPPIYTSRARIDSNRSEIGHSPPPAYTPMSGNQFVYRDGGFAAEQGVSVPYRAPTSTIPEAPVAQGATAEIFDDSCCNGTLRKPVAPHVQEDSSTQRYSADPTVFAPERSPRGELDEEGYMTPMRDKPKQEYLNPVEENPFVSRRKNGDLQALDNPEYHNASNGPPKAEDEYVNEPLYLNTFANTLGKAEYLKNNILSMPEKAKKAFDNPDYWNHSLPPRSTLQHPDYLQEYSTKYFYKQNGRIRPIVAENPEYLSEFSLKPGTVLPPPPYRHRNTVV
UniProt P21802, whole entry, looked up: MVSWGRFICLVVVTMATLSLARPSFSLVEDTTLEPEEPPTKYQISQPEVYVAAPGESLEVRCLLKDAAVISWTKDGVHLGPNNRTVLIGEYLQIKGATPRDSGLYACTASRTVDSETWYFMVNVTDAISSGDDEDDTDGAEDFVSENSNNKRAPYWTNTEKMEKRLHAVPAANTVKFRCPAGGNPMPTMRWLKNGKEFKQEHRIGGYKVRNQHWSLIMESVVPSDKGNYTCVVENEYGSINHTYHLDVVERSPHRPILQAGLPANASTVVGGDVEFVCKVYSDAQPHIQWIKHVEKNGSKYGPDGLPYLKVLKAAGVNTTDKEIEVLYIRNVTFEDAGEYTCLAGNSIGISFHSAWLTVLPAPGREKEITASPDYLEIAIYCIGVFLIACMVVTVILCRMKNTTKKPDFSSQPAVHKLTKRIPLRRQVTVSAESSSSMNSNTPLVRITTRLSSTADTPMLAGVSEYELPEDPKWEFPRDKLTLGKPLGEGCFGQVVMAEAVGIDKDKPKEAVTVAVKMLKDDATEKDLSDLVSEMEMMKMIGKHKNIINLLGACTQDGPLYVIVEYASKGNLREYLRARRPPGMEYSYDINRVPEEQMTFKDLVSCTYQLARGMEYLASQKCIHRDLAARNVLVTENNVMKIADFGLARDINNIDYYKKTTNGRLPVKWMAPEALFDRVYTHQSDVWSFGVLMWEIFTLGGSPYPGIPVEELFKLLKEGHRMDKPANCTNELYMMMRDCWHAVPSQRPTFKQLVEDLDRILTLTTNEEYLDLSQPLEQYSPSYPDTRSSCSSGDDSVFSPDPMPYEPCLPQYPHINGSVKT
UniProt P22607, whole entry, looked up: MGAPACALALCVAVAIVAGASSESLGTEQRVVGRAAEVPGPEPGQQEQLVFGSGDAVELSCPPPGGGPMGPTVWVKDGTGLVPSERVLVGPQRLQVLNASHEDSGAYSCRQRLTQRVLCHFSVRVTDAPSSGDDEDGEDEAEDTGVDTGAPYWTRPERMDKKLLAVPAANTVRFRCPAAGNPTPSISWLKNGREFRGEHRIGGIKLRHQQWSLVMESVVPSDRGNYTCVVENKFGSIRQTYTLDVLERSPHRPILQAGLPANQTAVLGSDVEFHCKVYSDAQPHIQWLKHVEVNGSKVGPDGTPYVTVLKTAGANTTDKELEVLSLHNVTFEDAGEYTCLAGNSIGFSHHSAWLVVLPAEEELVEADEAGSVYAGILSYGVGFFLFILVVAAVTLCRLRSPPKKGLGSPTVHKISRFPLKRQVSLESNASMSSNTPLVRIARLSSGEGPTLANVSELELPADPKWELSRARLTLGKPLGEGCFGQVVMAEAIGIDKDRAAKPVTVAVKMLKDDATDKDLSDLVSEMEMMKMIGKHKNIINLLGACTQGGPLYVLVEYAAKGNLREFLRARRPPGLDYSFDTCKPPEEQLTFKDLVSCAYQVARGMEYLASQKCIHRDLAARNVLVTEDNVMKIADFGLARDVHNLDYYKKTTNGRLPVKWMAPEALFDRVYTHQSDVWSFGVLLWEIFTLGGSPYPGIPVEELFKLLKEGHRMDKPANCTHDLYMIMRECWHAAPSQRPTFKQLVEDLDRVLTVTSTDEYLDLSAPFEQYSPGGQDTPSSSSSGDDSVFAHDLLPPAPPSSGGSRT
UniProt P36888, whole entry: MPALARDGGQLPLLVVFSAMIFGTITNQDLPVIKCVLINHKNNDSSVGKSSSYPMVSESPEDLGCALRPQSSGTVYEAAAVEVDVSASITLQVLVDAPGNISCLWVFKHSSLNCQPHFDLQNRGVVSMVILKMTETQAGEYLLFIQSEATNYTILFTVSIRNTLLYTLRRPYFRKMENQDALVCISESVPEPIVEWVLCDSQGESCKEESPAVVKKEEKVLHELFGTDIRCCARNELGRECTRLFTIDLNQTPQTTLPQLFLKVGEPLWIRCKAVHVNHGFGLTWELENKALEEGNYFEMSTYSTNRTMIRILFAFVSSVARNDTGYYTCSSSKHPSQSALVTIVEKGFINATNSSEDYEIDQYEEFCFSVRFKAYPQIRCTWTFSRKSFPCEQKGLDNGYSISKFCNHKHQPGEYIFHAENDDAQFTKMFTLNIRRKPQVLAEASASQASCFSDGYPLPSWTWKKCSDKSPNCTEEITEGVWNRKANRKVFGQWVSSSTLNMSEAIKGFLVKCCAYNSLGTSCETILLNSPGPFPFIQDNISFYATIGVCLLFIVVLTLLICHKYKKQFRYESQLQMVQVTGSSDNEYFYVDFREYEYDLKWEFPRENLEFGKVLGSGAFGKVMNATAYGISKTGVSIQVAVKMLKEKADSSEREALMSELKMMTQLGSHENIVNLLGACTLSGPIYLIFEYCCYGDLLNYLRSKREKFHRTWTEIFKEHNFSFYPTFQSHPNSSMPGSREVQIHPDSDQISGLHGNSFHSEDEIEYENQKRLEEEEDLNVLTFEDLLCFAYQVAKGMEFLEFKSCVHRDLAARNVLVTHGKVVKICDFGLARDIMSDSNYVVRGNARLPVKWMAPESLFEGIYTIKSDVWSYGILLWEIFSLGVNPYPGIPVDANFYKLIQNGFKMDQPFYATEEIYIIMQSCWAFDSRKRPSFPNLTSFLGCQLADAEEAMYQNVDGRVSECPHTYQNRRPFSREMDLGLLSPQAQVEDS
UniProt P14616: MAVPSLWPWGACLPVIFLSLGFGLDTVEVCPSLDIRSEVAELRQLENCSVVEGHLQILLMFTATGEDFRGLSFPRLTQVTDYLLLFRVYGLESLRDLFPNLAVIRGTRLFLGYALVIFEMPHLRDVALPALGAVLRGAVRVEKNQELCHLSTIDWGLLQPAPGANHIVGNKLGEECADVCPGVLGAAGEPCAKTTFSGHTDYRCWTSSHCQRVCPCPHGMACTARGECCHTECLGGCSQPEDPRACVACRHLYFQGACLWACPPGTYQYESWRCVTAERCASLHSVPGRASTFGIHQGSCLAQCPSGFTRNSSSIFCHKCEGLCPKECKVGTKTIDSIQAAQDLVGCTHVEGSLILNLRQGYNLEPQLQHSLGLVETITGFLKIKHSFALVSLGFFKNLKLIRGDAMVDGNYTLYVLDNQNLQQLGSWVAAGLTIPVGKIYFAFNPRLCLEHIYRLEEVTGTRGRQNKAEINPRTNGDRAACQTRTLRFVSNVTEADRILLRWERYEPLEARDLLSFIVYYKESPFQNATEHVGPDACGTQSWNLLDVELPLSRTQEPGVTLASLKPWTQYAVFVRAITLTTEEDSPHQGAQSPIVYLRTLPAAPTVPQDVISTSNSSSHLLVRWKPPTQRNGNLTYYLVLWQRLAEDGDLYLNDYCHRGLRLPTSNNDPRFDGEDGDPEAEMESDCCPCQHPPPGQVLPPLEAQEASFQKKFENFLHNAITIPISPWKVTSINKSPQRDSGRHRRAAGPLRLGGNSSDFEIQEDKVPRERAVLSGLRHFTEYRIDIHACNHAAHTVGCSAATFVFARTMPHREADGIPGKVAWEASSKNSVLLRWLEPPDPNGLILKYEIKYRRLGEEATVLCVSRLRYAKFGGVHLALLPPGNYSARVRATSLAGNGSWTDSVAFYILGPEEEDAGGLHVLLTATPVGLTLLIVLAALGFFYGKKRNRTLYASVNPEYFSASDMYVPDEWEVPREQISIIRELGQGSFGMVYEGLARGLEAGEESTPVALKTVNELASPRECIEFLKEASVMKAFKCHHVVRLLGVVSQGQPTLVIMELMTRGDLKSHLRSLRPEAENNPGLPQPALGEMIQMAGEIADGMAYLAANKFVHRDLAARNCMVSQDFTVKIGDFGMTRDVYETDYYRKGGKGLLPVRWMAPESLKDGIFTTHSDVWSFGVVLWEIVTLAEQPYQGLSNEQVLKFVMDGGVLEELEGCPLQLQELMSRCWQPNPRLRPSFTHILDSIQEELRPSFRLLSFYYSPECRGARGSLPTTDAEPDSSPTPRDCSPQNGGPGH

What was measured:
Assay in all cases: kinase-Nluc reporter destabilization hit call (1 = scored as downregulated) (binary); higher = compound decreases kinase abundance
Settings in all cases: K562, 2-18 h
EGFR = EGFR (UniProt P00533)
EGFR_G719S = EGFR_G719S (UniProt P00533)
EGFR_G719S_T790M = EGFR_G719S_T790M (UniProt P00533)
EGFR_L718V = EGFR_L718V (UniProt P00533)
EGFR_L858R = EGFR_L858R (UniProt P00533)
EGFR_L861Q = EGFR_L861Q (UniProt P00533)
EGFR_T790M = EGFR_T790M (UniProt P00533)
EPHA2 = EPHA2 (UniProt P29317)
ERBB3 = ERBB3 (UniProt P21860)
[1] = target: ERBB4_R711C (clone: ERBB4_mut) (UniProt Q15303)
ERN1 = ERN1 (UniProt O75460)
FGFR1 = FGFR1 (UniProt P11362)
FGFR2 = FGFR2 (UniProt P21802)
FGFR3 = FGFR3 (UniProt P22607)
FGR = FGR (UniProt P09769)
FLT3 = FLT3 (UniProt P36888)
FYN = FYN (UniProt P06241)
GSK3A = GSK3A (UniProt P49840)
HER2 = HER2 (UniProt P04626)
INSRR = INSRR (UniProt P14616)

COC(=O)[C@H](CC(C)C)NC(=O)c1ccc(NC[C@@H](N)CS)cc1-c1cccc2ccccc12
kinase-Nluc reporter destabilization hit call (EGFR; 10 µM): inactive: 0
kinase-Nluc reporter destabilization hit call (EGFR_G719S; 10 µM): inactive: 0
kinase-Nluc reporter destabilization hit call (EGFR_G719S_T790M; 10 µM): inactive: 0
kinase-Nluc reporter destabilization hit call (EGFR_L718V; 10 µM): inactive: 0
kinase-Nluc reporter destabilization hit call (EGFR_L858R; 10 µM): inactive: 0
kinase-Nluc reporter destabilization hit call (EGFR_L861Q; 10 µM): inactive: 0
kinase-Nluc reporter destabilization hit call (EGFR_T790M; 10 µM): inactive: 0
kinase-Nluc reporter destabilization hit call (EPHA2; 10 µM): inactive: 0
kinase-Nluc reporter destabilization hit call (ERBB3; 10 µM): inactive: 0
kinase-Nluc reporter destabilization hit call ([1]; 10 µM): inactive: 0
kinase-Nluc reporter destabilization hit call (ERN1; 10 µM): inactive: 0
kinase-Nluc reporter destabilization hit call (FGFR1; 10 µM): inactive: 0
kinase-Nluc reporter destabilization hit call (FGFR2; 10 µM): inactive: 0
kinase-Nluc reporter destabilization hit call (FGFR3; 10 µM): inactive: 0
kinase-Nluc reporter destabilization hit call (FGR; 10 µM): inactive: 0
kinase-Nluc reporter destabilization hit call (FLT3; 10 µM): inactive: 0
kinase-Nluc reporter destabilization hit call (FYN; 10 µM): inactive: 0
kinase-Nluc reporter destabilization hit call (GSK3A; 10 µM): inactive: 0
kinase-Nluc reporter destabilization hit call (HER2; 10 µM): inactive: 0
kinase-Nluc reporter destabilization hit call (INSRR; 10 µM): inactive: 0

Cn1ncc(Cl)c1-c1cc(C(=O)N[C@H](CN)Cc2cccc(F)c2)sc1Cl [Afuresertib (hydrochloride)]
kinase-Nluc reporter destabilization hit call (EGFR; 10 µM): inactive: 0
kinase-Nluc reporter destabilization hit call (EGFR_G719S; 10 µM): inactive: 0
kinase-Nluc reporter destabilization hit call (EGFR_G719S_T790M; 10 µM): inactive: 0
kinase-Nluc reporter destabilization hit call (EGFR_L718V; 10 µM): inactive: 0
kinase-Nluc reporter destabilization hit call (EGFR_L858R; 10 µM): inactive: 0
kinase-Nluc reporter destabilization hit call (EGFR_L861Q; 10 µM): inactive: 0
kinase-Nluc reporter destabilization hit call (EGFR_T790M; 10 µM): inactive: 0
kinase-Nluc reporter destabilization hit call (EPHA2; 10 µM): inactive: 0
kinase-Nluc reporter destabilization hit call (ERBB3; 10 µM): inactive: 0
kinase-Nluc reporter destabilization hit call ([1]; 10 µM): inactive: 0
kinase-Nluc reporter destabilization hit call (ERN1; 10 µM): inactive: 0
kinase-Nluc reporter destabilization hit call (FGFR1; 10 µM): inactive: 0
kinase-Nluc reporter destabilization hit call (FGFR2; 10 µM): inactive: 0
kinase-Nluc reporter destabilization hit call (FGFR3; 10 µM): inactive: 0
kinase-Nluc reporter destabilization hit call (FGR; 10 µM): inactive: 0
kinase-Nluc reporter destabilization hit call (FLT3; 10 µM): inactive: 0
kinase-Nluc reporter destabilization hit call (FYN; 10 µM): inactive: 0
kinase-Nluc reporter destabilization hit call (GSK3A; 10 µM): inactive: 0
kinase-Nluc reporter destabilization hit call (HER2; 10 µM): inactive: 0
kinase-Nluc reporter destabilization hit call (INSRR; 10 µM): inactive: 0

C=CC(=O)Nc1cc(Nc2nccc(-c3cn(C4CC4)c4ccccc34)n2)c(OC)cc1N(C)CCN(C)C [Almonertinib]
kinase-Nluc reporter destabilization hit call (EGFR; 2.5 µM): inactive: 0
kinase-Nluc reporter destabilization hit call (EGFR_G719S; 2.5 µM): inactive: 0
kinase-Nluc reporter destabilization hit call (EGFR_G719S_T790M; 2.5 µM): inactive: 0
kinase-Nluc reporter destabilization hit call (EGFR_L718V; 2.5 µM): inactive: 0
kinase-Nluc reporter destabilization hit call (EGFR_L858R; 2.5 µM): inactive: 0
kinase-Nluc reporter destabilization hit call (EGFR_L861Q; 2.5 µM): inactive: 0
kinase-Nluc reporter destabilization hit call (EGFR_T790M; 2.5 µM): inactive: 0
kinase-Nluc reporter destabilization hit call (EPHA2; 2.5 µM): inactive: 0
kinase-Nluc reporter destabilization hit call (ERBB3; 2.5 µM): inactive: 0
kinase-Nluc reporter destabilization hit call ([1]; 2.5 µM): inactive: 0
kinase-Nluc reporter destabilization hit call (ERN1; 2.5 µM): inactive: 0
kinase-Nluc reporter destabilization hit call (FGFR1; 2.5 µM): inactive: 0
kinase-Nluc reporter destabilization hit call (FGFR2; 2.5 µM): inactive: 0
kinase-Nluc reporter destabilization hit call (FGFR3; 2.5 µM): inactive: 0
kinase-Nluc reporter destabilization hit call (FGR; 2.5 µM): inactive: 0
kinase-Nluc reporter destabilization hit call (FLT3; 2.5 µM): inactive: 0
kinase-Nluc reporter destabilization hit call (FYN; 2.5 µM): inactive: 0
kinase-Nluc reporter destabilization hit call (GSK3A; 2.5 µM): inactive: 0
kinase-Nluc reporter destabilization hit call (HER2; 2.5 µM): inactive: 0
kinase-Nluc reporter destabilization hit call (INSRR; 2.5 µM): inactive: 0

Cc1[nH]c(/C=C2\C(=O)Nc3ccc(F)cc32)c(C)c1C(=O)NCCN1CCCC1 [Toceranib (phosphate)]
kinase-Nluc reporter destabilization hit call (EGFR; 2 µM): inactive: 0
kinase-Nluc reporter destabilization hit call (EGFR_G719S; 2 µM): inactive: 0
kinase-Nluc reporter destabilization hit call (EGFR_G719S_T790M; 2 µM): inactive: 0
kinase-Nluc reporter destabilization hit call (EGFR_L718V; 2 µM): inactive: 0
kinase-Nluc reporter destabilization hit call (EGFR_L858R; 2 µM): inactive: 0
kinase-Nluc reporter destabilization hit call (EGFR_L861Q; 2 µM): inactive: 0
kinase-Nluc reporter destabilization hit call (EGFR_T790M; 2 µM): inactive: 0
kinase-Nluc reporter destabilization hit call (EPHA2; 2 µM): inactive: 0
kinase-Nluc reporter destabilization hit call (ERBB3; 2 µM): inactive: 0
kinase-Nluc reporter destabilization hit call ([1]; 2 µM): inactive: 0
kinase-Nluc reporter destabilization hit call (ERN1; 2 µM): inactive: 0
kinase-Nluc reporter destabilization hit call (FGFR1; 2 µM): inactive: 0
kinase-Nluc reporter destabilization hit call (FGFR2; 2 µM): inactive: 0
kinase-Nluc reporter destabilization hit call (FGFR3; 2 µM): inactive: 0
kinase-Nluc reporter destabilization hit call (FGR; 2 µM): inactive: 0
kinase-Nluc reporter destabilization hit call (FLT3; 2 µM): inactive: 0
kinase-Nluc reporter destabilization hit call (FYN; 2 µM): inactive: 0
kinase-Nluc reporter destabilization hit call (GSK3A; 2 µM): inactive: 0
kinase-Nluc reporter destabilization hit call (HER2; 2 µM): inactive: 0
kinase-Nluc reporter destabilization hit call (INSRR; 2 µM): inactive: 0

O=C(c1ccc(F)c(F)c1Nc1ccc(I)cc1F)N1CC(O)([C@@H]2CCCCN2)C1 [Cobimetinib (hemifumarate)]
kinase-Nluc reporter destabilization hit call (EGFR; 10 µM): inactive: 0
kinase-Nluc reporter destabilization hit call (EGFR_G719S; 10 µM): inactive: 0
kinase-Nluc reporter destabilization hit call (EGFR_G719S_T790M; 10 µM): inactive: 0
kinase-Nluc reporter destabilization hit call (EGFR_L718V; 10 µM): inactive: 0
kinase-Nluc reporter destabilization hit call (EGFR_L858R; 10 µM): inactive: 0
kinase-Nluc reporter destabilization hit call (EGFR_L861Q; 10 µM): inactive: 0
kinase-Nluc reporter destabilization hit call (EGFR_T790M; 10 µM): inactive: 0
kinase-Nluc reporter destabilization hit call (EPHA2; 10 µM): inactive: 0
kinase-Nluc reporter destabilization hit call (ERBB3; 10 µM): inactive: 0
kinase-Nluc reporter destabilization hit call ([1]; 10 µM): inactive: 0
kinase-Nluc reporter destabilization hit call (ERN1; 10 µM): inactive: 0
kinase-Nluc reporter destabilization hit call (FGFR1; 10 µM): inactive: 0
kinase-Nluc reporter destabilization hit call (FGFR2; 10 µM): inactive: 0
kinase-Nluc reporter destabilization hit call (FGFR3; 10 µM): inactive: 0
kinase-Nluc reporter destabilization hit call (FGR; 10 µM): inactive: 0
kinase-Nluc reporter destabilization hit call (FLT3; 10 µM): inactive: 0
kinase-Nluc reporter destabilization hit call (FYN; 10 µM): inactive: 0
kinase-Nluc reporter destabilization hit call (GSK3A; 10 µM): inactive: 0
kinase-Nluc reporter destabilization hit call (HER2; 10 µM): inactive: 0
kinase-Nluc reporter destabilization hit call (INSRR; 10 µM): inactive: 0

COc1ccc(S(=O)(=O)Nc2ccccc2CN(C)C/C=C/c2ccc(Cl)cc2)cc1 [KN-92 (phosphate)]
kinase-Nluc reporter destabilization hit call (EGFR; 2.5 µM): inactive: 0
kinase-Nluc reporter destabilization hit call (EGFR_G719S; 2.5 µM): inactive: 0
kinase-Nluc reporter destabilization hit call (EGFR_G719S_T790M; 2.5 µM): inactive: 0
kinase-Nluc reporter destabilization hit call (EGFR_L718V; 2.5 µM): inactive: 0
kinase-Nluc reporter destabilization hit call (EGFR_L858R; 2.5 µM): inactive: 0
kinase-Nluc reporter destabilization hit call (EGFR_L861Q; 2.5 µM): inactive: 0
kinase-Nluc reporter destabilization hit call (EGFR_T790M; 2.5 µM): inactive: 0
kinase-Nluc reporter destabilization hit call (EPHA2; 2.5 µM): inactive: 0
kinase-Nluc reporter destabilization hit call (ERBB3; 2.5 µM): inactive: 0
kinase-Nluc reporter destabilization hit call ([1]; 2.5 µM): inactive: 0
kinase-Nluc reporter destabilization hit call (ERN1; 2.5 µM): inactive: 0
kinase-Nluc reporter destabilization hit call (FGFR1; 2.5 µM): inactive: 0
kinase-Nluc reporter destabilization hit call (FGFR2; 2.5 µM): inactive: 0
kinase-Nluc reporter destabilization hit call (FGFR3; 2.5 µM): inactive: 0
kinase-Nluc reporter destabilization hit call (FGR; 2.5 µM): inactive: 0
kinase-Nluc reporter destabilization hit call (FLT3; 2.5 µM): inactive: 0
kinase-Nluc reporter destabilization hit call (FYN; 2.5 µM): inactive: 0
kinase-Nluc reporter destabilization hit call (GSK3A; 2.5 µM): inactive: 0
kinase-Nluc reporter destabilization hit call (HER2; 2.5 µM): inactive: 0
kinase-Nluc reporter destabilization hit call (INSRR; 2.5 µM): inactive: 0

COc1cc2c(cc1OC)-c1c(C)c3ccc(OC)c(OC)c3c[n+]1CC2 [Dehydrocorydaline]
kinase-Nluc reporter destabilization hit call (EGFR; 10 µM): inactive: 0
kinase-Nluc reporter destabilization hit call (EGFR_G719S; 10 µM): inactive: 0
kinase-Nluc reporter destabilization hit call (EGFR_G719S_T790M; 10 µM): inactive: 0
kinase-Nluc reporter destabilization hit call (EGFR_L718V; 10 µM): inactive: 0
kinase-Nluc reporter destabilization hit call (EGFR_L858R; 10 µM): inactive: 0
kinase-Nluc reporter destabilization hit call (EGFR_L861Q; 10 µM): inactive: 0
kinase-Nluc reporter destabilization hit call (EGFR_T790M; 10 µM): inactive: 0
kinase-Nluc reporter destabilization hit call (EPHA2; 10 µM): inactive: 0
kinase-Nluc reporter destabilization hit call (ERBB3; 10 µM): inactive: 0
kinase-Nluc reporter destabilization hit call ([1]; 10 µM): inactive: 0
kinase-Nluc reporter destabilization hit call (ERN1; 10 µM): inactive: 0
kinase-Nluc reporter destabilization hit call (FGFR1; 10 µM): inactive: 0
kinase-Nluc reporter destabilization hit call (FGFR2; 10 µM): inactive: 0
kinase-Nluc reporter destabilization hit call (FGFR3; 10 µM): inactive: 0
kinase-Nluc reporter destabilization hit call (FGR; 10 µM): inactive: 0
kinase-Nluc reporter destabilization hit call (FLT3; 10 µM): inactive: 0
kinase-Nluc reporter destabilization hit call (FYN; 10 µM): inactive: 0
kinase-Nluc reporter destabilization hit call (GSK3A; 10 µM): inactive: 0
kinase-Nluc reporter destabilization hit call (HER2; 10 µM): inactive: 0
kinase-Nluc reporter destabilization hit call (INSRR; 10 µM): inactive: 0

O=C(O)c1ccc2c(c1)nc(Nc1cccc(Cl)c1)c1ccncc12 [Silmitasertib]
kinase-Nluc reporter destabilization hit call (EGFR; 10 µM): inactive: 0
kinase-Nluc reporter destabilization hit call (EGFR_G719S; 10 µM): active: 1
kinase-Nluc reporter destabilization hit call (EGFR_G719S_T790M; 10 µM): inactive: 0
kinase-Nluc reporter destabilization hit call (EGFR_L718V; 10 µM): inactive: 0
kinase-Nluc reporter destabilization hit call (EGFR_L858R; 10 µM): inactive: 0
kinase-Nluc reporter destabilization hit call (EGFR_L861Q; 10 µM): inactive: 0
kinase-Nluc reporter destabilization hit call (EGFR_T790M; 10 µM): inactive: 0
kinase-Nluc reporter destabilization hit call (EPHA2; 10 µM): inactive: 0
kinase-Nluc reporter destabilization hit call (ERBB3; 10 µM): inactive: 0
kinase-Nluc reporter destabilization hit call ([1]; 10 µM): inactive: 0
kinase-Nluc reporter destabilization hit call (ERN1; 10 µM): inactive: 0
kinase-Nluc reporter destabilization hit call (FGFR1; 10 µM): inactive: 0
kinase-Nluc reporter destabilization hit call (FGFR2; 10 µM): inactive: 0
kinase-Nluc reporter destabilization hit call (FGFR3; 10 µM): inactive: 0
kinase-Nluc reporter destabilization hit call (FGR; 10 µM): inactive: 0
kinase-Nluc reporter destabilization hit call (FLT3; 10 µM): inactive: 0
kinase-Nluc reporter destabilization hit call (FYN; 10 µM): inactive: 0
kinase-Nluc reporter destabilization hit call (GSK3A; 10 µM): inactive: 0
kinase-Nluc reporter destabilization hit call (HER2; 10 µM): inactive: 0
kinase-Nluc reporter destabilization hit call (INSRR; 10 µM): inactive: 0
